According to PubChem BioAssay AID2685 (National Center for Advancing Translational Sciences (NCATS), 2010):
This is one part of the list. Shown are side measurements of this screen, not its main read-out; they come without a call. Most of these compounds were active or inconclusive in the main read-out, so they are no random draw. Potencies come from curve fits of mixed quality, noted in brackets.

Assay: qHTS Assay for Lipid Storage Modulators in Drosophila S3 Cells;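 as to cell number change: cells counted by Cell Tracker Red CMTPX staining in the red channel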
Details: BODIPY lipid droplet fluorescence, 18-24 h; for cell number change: measured here: cell count max response, cells fed with added oleic acid
Summary of the method: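 Drosophila S3 cells loaded with oleic acid (400 uM, as added) and compounds at several concentrations; lipid droplets imaged by 488-nm laser-scanning cytometry, 500–530 nm intensity and object ratio to cell channel. Percent activity normalized to 20 uM Triacsin C.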

[1] = measured here: lipid fluorescence (Fed channel) AC50, cells fed with added oleic acid
[2] = measured here: cell number channel AC50, cells fed with added oleic acid

## C=CCN1C(c2ccccc2)=CS/C1=C(\C#N)c1nnc2n1CCCCC2
  cell number change: -19.3%
[1]
  AC50: 16.4 µM [falling, single point]

## CC[C@H](C)[C@H](NC(N)=O)C(=O)Nc1ccccc1F
  cell number change: -79.2%
[1]
  AC50: 0.116 µM [rising, partial curve, poor fit]

## O=C(Nc1ccc(S(=O)(=O)NCc2ccccc2)cc1)c1ccccc1[N+](=O)[O-]
  cell number change: -2.72%
[2]
  AC50: 0.00461 µM [rising, full curve, poor fit]
[1]
  AC50: 8.2 µM [rising, partial curve]

## CCOc1ccc(CN(C)CC(=O)c2c(N)n(Cc3ccccc3)c(=O)n(CC)c2=O)cc1OC
  cell number change: 2.93%

## Cc1ccnc(NC(=O)C2COc3ccccc3O2)c1 (stereo not given)
  cell number change: -66.7%
[2]
  AC50: 5.17 µM [falling, full curve]

## CCOc1cc(NC(=S)NCCCN(C)C)c(OCC)cc1NC(=O)c1cccs1
  cell number change: -53.4%
[2]
  AC50: 1.46 µM [falling, partial curve, poor fit]
[1]
  AC50: 1.3 µM [falling, full curve, poor fit]

## COc1ccc(CC(=O)NC(C)c2nnc(SCC(=O)Nc3ccccc3)n2C)cc1 (stereo not given)
  cell number change: -49.7%
[2]
  AC50: 6.51 µM [falling, single point]
[1]
  AC50: 4.11 µM [falling, single point]

## N#CCSc1nccc(-c2cc(Cl)sc2Cl)n1
  cell number change: 95.3%
[2]
  AC50: 29.1 µM [rising, single point]
[1]
  AC50: 16.4 µM [rising, partial curve]

## COc1cc(NC(=O)COc2cccc(C)c2C)ccc1NC(=O)c1ccco1
  cell number change: 58.1%
[2]
  AC50: 29.1 µM [rising, single point]
[1]
  AC50: 25.9 µM [falling, single point]

## COCCn1c(SCC(=O)N2CCCCC2)nc2c([nH]c3ccccc32)c1=O
  cell number change: -16.6%

## CCOC(=O)c1c(C)nc2ccccc2c1-c1ccccc1
  cell number change: -26%
[1]
  AC50: 0.651 µM [rising, partial curve, poor fit]

## CCOc1ccc(N(CC(=O)NC(C)C)C(=O)CCC(=O)Nc2ccccn2)cc1
  cell number change: -4.2%
[1]
  AC50: 4.11 µM [falling, full curve, poor fit]

## O=C(NCCCN1CCCC1)C1CCN(C(=O)c2cc3sccc3n2Cc2ccc(F)cc2)CC1
  cell number change: -64.8%
[2]
  AC50: 32.6 µM [falling, single point]

## COc1ccc(/C=C/C(=O)O)cc1S(=O)(=O)N1CCC(C)CC1
  cell number change: 25.7%

## Cc1ccccc1N1CCN(S(=O)(=O)C[C@]23CCC(CC2NC(=O)[C@@H](N)CCS(C)(=O)=O)C3(C)C)CC1 (stereo not given in full)
  cell number change: 35.8%
[2]
  AC50: 1.03 µM [rising, full curve]
[1]
  AC50: 1.64 µM [rising, full curve]

## CC(NCC(O)COC1CCC(C(C)(C)C)CC1)c1ccccc1 (stereo not given)
  cell number change: -45.5%
[2]
  AC50: 29.1 µM [falling, single point]
[1]
  AC50: 32.6 µM [falling, single point]

## COc1cccc(NC(=S)N2CCN(c3ccccn3)CC2)c1
  cell number change: 8.15%
[1]
  AC50: 4.61 µM [rising, single point]

## COc1ccc(S(=O)(=O)N2CCCC(C(=O)NCc3ccncc3)C2)cc1Cl (stereo not given)
  cell number change: -6.48%

## Cc1noc(C(=O)Nc2ccc(F)c(Cl)c2)c1Cl
  cell number change: 6.31%
[2]
  AC50: 6.51 µM [rising, single point]

## CSc1nsc(SCC(=O)Nc2ccccn2)n1
  cell number change: -40.2%
[2]
  AC50: 29.1 µM [falling, single point]
[1]
  AC50: 18.4 µM [falling, single point]

## CCOC(=O)CN1CC23C=CC(O2)C(C(=O)Nc2ccc(F)c(C)c2)C3C1=O (stereo not given)
  cell number change: -35.6%
[2]
  AC50: 0.58 µM [falling, full curve]
[1]
  AC50: 4.11 µM [falling, full curve]

## CC1CCN(S(=O)(=O)c2ccc3c(c2)CC(C)N3C(=O)C2CCC2)CC1 (stereo not given)
[1]
  AC50: 6.51 µM [rising, single point]

## O=C(c1cnc(Cl)c(Cl)c1)N1CCN(S(=O)(=O)c2ccc3ccccc3c2)CC1
  cell number change: -40.1%
[2]
  AC50: 32.6 µM [falling, single point]
[1]
  AC50: 5.17 µM [falling, single point]

## CCNC(=S)N/N=C(\C)c1ccc2ccccc2c1
  cell number change: 26.5%
[2]
  AC50: 0.731 µM [rising, full curve, poor fit]

## O=C(NCCC1CCCCN1S(=O)(=O)c1ccc(F)cc1)C(=O)NC1CCCC1 (stereo not given)
  cell number change: -36%
[2]
  AC50: 16.4 µM [falling, single point]

## CCOC(=O)C1=C(CCc2ccccc2)NC(=O)NC1c1cccc([N+](=O)[O-])c1 (stereo not given)
  cell number change: -0.599%
[1]
  AC50: 0.116 µM [falling, full curve, poor fit]

## CCCn1c2ccc(/C(C)=N\O)cc2c2cc(/C(C)=N/O)ccc21
  cell number change: 16.7%
[2]
  AC50: 1.3 µM [rising, partial curve, poor fit]
[1]
  AC50: 0.366 µM [rising, full curve, poor fit]

## CC1CCN(C(=O)CN(c2ccc(Cl)c(C(F)(F)F)c2)S(C)(=O)=O)CC1
[1]
  AC50: 6.51 µM [rising, single point]

## O=C(COc1ccc(Cl)cc1)NCc1nnc(SCC(=O)c2ccccc2)o1
  cell number change: 14.5%
[2]
  AC50: 0.291 µM [rising, full curve, poor fit]

## O=C(Nc1ccnc(-c2ccncc2)n1)c1ccccc1Cl
  cell number change: 21.3%
[2]
  AC50: 2.31 µM [rising, single point]
[1]
  AC50: 5.8 µM [rising, full curve]

## CC(C)(C)c1ccc(OC(=O)N2CCOCC2)cc1
  cell number change: -0.708%

## CCCCN(Cc1ccccc1)c1ncnc2nc[nH]c12
  cell number change: -36.2%
[2]
  AC50: 18.4 µM [falling, partial curve]
[1]
  AC50: 18.4 µM [falling, single point]

## CC(C)(C)C1CCc2onc(C(=O)Nc3cnn(Cc4ccc(F)cc4)c3)c2C1 (stereo not given)
  cell number change: -82.5%
[2]
  AC50: 3.26 µM [rising, partial curve]

## CCOC(=O)c1cc(NC(=O)/C=C\C(=O)O)ccc1Cl
  cell number change: 52%
[2]
  AC50: 0.103 µM [falling, full curve, poor fit]
[1]
  AC50: 0.103 µM [falling, full curve, poor fit]
